From PubChem BioAssay (NCATS)
“And” between values parts separate entries of the source, which are not always exact repeats. Identical values can stand only once. The list shows a part of the results. These are further read-outs of the screen, such as a control signal, another cell line or another target. No call is given for them. Most of these compounds were active or inconclusive in the main read-out, so they are no random draw. For some assays here: Words in brackets tell the shape of the fitted curve; partial curves, single points and poor fits give uncertain potencies.

Legend:
[1] = qHTS assay for small molecule antagonists of androgen receptor signaling (AID 588516); details: AR-UAS-bla HEK293, beta-lactamase ratio, antagonist mode, 16 h
How it was run: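 Antagonist-mode qHTS: inhibition of R1881 (10 nM)-driven beta-lactamase expression in GripTite HEK 293 cells is measured after 16 h; values are Hill-derived IC50s normalized between R1881 and DMSO wells.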

[2] = qHTS assay for small molecule antagonists of peroxisome proliferator-activated receptor gamma signaling (AID 588537); details: HEK293 PPARg-UAS-bla, beta-lactamase ratio, antagonist mode; measured here: W460 blue channel
How it was run: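 We seeded GeneBLAzer HEK293 reporter cells at 3000 per well, allowed 6-6.5 h attachment at 37 C, then co-treated with test compound titrations and 50 nM rosiglitazone overnight (16 h). Inhibition was quantified from 460/530 nm emission ratios.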

[3] = qHTS assay for small molecule agonists of retinoid X receptor alpha signaling (AID 588544); details: HEK293T RXRa-UAS-bla, beta-lactamase reporter, 18 h; 530 nm emission
[4] = qHTS assay for small molecule antagonists of peroxisome proliferator-activated receptor delta signaling (AID 588535); details: HEK293T PPARd-UAS-bla, beta-lactamase FRET ratio, 18 h; 460 nm channel;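 note: cells co-treated with a PPAR-delta agonist as stimulator during compound exposure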
How it was run: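 Reporter: UAS-bla under PPAR-delta response element, HEK293T host. Medium: 2% charcoal/dextran FBS. Dosing: titration, 18 hrs, 37 C. Detection: CCF4, 2 hrs RT, 405 ex/460 and 530 em.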

[5] = qHTS assay for small molecule antagonists of vitamin D receptor signaling (AID 588541); details: HEK293T VDR-UAS-bla, beta-lactamase ratio, antagonist mode; measured here: W460 blue channel (cell viability)
[6] = qHTS assay for small molecule antagonists of retinoid X receptor alpha signaling (AID 588546); details: HEK293T RXRa-UAS-bla, beta-lactamase ratio, antagonist mode; measured here: W530 green channel, cytotoxicity proxy;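 note: cells stimulated with 9-cis-retinoic acid as agonist; % is set by controls: 0 for no effect and ±100 for the full control effect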
How it was run: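 Beta-lactamase reporter inhibition, read as CCF4 fluorescence ratio (ex 405, em 460/530 nm) after 2 h at RT. HEK293T UAS-bla cells, 2500/well, were stimulated with 9-cis-RA at 500 or 100 nM final alongside test compound for 18 h at 37 C.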

[7] = qHTS assay for small molecule antagonists of glucocorticoid receptor signaling (AID 588533); details: HeLa MMTV-bla, GRE beta-lactamase ratio, antagonist mode, 18 h; measured here: W530 channel AC50
[8] = S16 Schwann cell PMP22 intronic element beta-lactamase assay (AID 624044); details: S16 rat Schwann cells, PMP22 element beta-lactamase FRET, 24 h; measured here: 460 nm blue channel
How it was run: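 Rat S16 Schwann cells with beta-Lac driven by a PMP22 intronic element, compound-treated 24 h at 37 °C. LiveBLAzer FRET B/G read: 460 nm normalized to potassium clavulanate vs DMSO; 535 nm FRET as viability; concentration-effect curves classified.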

[9] = measured here: W460 blue channel fit
[10] = measured here: W530 green channel, cytotoxicity/artifact

CCOc1ccccc1C(N)=O
AC50 [1, 9]: 0.0447 µM [falling, full curve, poor fit] | AC50 [1, 10]: 0.0501 µM [falling, full curve, poor fit]

Cc1c(C(=O)O)cccc1[N+](=O)[O-]
AC50 [1, 9]: 4.47 µM [falling, partial curve, poor fit]

Nc1nc2ccc([N+](=O)[O-])cc2s1
AC50 [1, 9]: 39.8 µM [falling, partial curve, poor fit] | AC50 [2]: 63.1 µM [rising, single point] | max response [3]: 18.3%

CC(=O)OC(C(=O)c1ccccc1)c1ccccc1 (stereo not drawn)
AC50 [1, 9]: 70.8 µM [falling, single point] | max response [4]: -5.92%

Cc1c2ccccc2c(C)c2c1ccc1ccccc12
AC50 [1, 9]: 25.1 µM [falling, full curve] and 12.6 µM [rising, partial curve] | AC50 [1, 10]: 8.91 µM [rising, partial curve] and 28.2 µM [rising, partial curve] | max response [4]: -76% and 61.5% | AC50 [5]: 22.4 µM [falling, full curve, poor fit] and 8.91 µM [rising, full curve, poor fit] | max response [3]: 7.31% and 23.6% | max response [6]: 3.6%

Cc1cc(=O)oc2cc(O)cc(O)c12
AC50 [1, 9]: 44.7 µM [rising, partial curve] | AC50 [1, 10]: 20 µM [rising, full curve, poor fit] | max response [4]: 275% | max response [3]: 95.2% | max response [6]: 111%

COC(=O)CSc1cc(N=c2sc(=O)n3n2CCCC3)c(F)cc1Cl
AC50 [1, 9]: 0.00316 µM [rising, full curve, poor fit] | AC50 [1, 10]: 50.1 µM [rising, single point] | max response [4]: 25.1% | max response [3]: 19.5% | max response [6]: 15.6%

O=C1NC(=O)C(Cc2ccc(OCCN3COc4ccccc4C3=O)cc2)S1 (stereo not drawn)
AC50 [1, 9]: 12.6 µM [rising, full curve, poor fit] | AC50 [1, 10]: 11.2 µM [rising, full curve, poor fit] | max response [4]: 285% | max response [3]: 53%

CCC(C)Nc1ccc(NC(C)CC)cc1 (stereo not drawn)
AC50 [1, 9]: 35.5 µM [falling, partial curve] | AC50 [1, 10]: 12.6 µM [rising, full curve] and 35.5 µM [rising, partial curve, poor fit] | AC50 [7]: 25.1 µM [falling, full curve, poor fit] | max response [4]: -98.6% and -79.8% | AC50 [2]: 35.5 µM [falling, partial curve] and 44.7 µM [falling, partial curve] | AC50 [5]: 10 µM [falling, full curve, poor fit] and 25.1 µM [falling, full curve] | max response [3]: 0.508% and -56.7% | max response [6]: -0.59%

C=CC(=O)OCCCCCCOC(=O)C=C
AC50 [1, 9]: 50.1 µM [falling, partial curve, poor fit] and 15.8 µM [falling, full curve, poor fit] | max response [4]: -111% | AC50 [5]: 39.8 µM [falling, partial curve, poor fit] | max response [3]: 15.9%

Cc1c(C)c2c(c(C)c1O)CCC(C)(COc1ccc(CC3SC(=O)NC3=O)cc1)O2 (stereo not drawn)
AC50 [1, 9]: 12.6 µM [rising, partial curve] | AC50 [1, 10]: 15.8 µM [rising, full curve, poor fit] | max response [4]: 56.5%

C[Si](C)(C)Cl
AC50 [1, 9]: 50.1 µM [rising, single point] | max response [4]: 198%

C[C@]12CCC(=O)C=C1CC[C@@H]1[C@@H]2[C@@H](O)C[C@]2(C=O)[C@@H](C(=O)CO)CC[C@@H]12
AC50 [1, 9]: 25.1 µM [falling, partial curve, poor fit] | max response [4]: 83.5%

O=C(OCC(COC(=O)c1ccccc1)(COC(=O)c1ccccc1)COC(=O)c1ccccc1)c1ccccc1
AC50 [7]: 39.8 µM [falling, partial curve] | max response [4]: -75.3% | AC50 [2]: 39.8 µM [falling, partial curve, poor fit] | AC50 [5]: 35.5 µM [falling, partial curve, poor fit] | max response [3]: -47.4% | max response [6]: -24.3%

OC(Cn1cncn1)(Cn1cncn1)c1ccc(F)cc1F
max response [4]: 39.2%

CCCCCCCCCCCC(=O)OC
AC50 [7]: 50.1 µM [falling, single point] | max response [4]: -57.5% | AC50 [2]: 35.5 µM [falling, partial curve] | AC50 [5]: 39.8 µM [falling, partial curve, poor fit] | max response [3]: -39.2% | max response [6]: -46.4%

O=C1OC2(c3cc(Br)c(O)c(Br)c3Oc3c2cc(Br)c(O)c3Br)c2c(Cl)c(Cl)c(Cl)c(Cl)c21
AC50 [7]: 44.7 µM [falling, single point] | max response [4]: 113% | AC50 [2]: 44.7 µM [falling, single point] | max response [3]: 39%

O=S(=O)(c1ccccc1)N(CC(F)(F)F)c1ccc(C(O)(C(F)(F)F)C(F)(F)F)cc1
AC50 [1, 9]: 50.1 µM [falling, partial curve, poor fit] | AC50 [5]: 50.1 µM [falling, single point]

CC[C@H](C)C1O[C@]2(C=C[C@@H]1C)C[C@@H]1C[C@@H](C/C=C(\C)[C@@H](O[C@H]3C[C@H](OC)[C@@H](O[C@H]4C[C@H](OC)[C@H](NC(C)=O)[C@H](C)O4)[C@H](C)O3)[C@@H](C)/C=C/C=C3\CO[C@@H]4[C@H](O)C(C)=C[C@@H](C(=O)O1)[C@]34O)O2 (stereo partly drawn)
AC50 [7]: 50.1 µM [falling, single point] | max response [4]: -2.81% | AC50 [2]: 31.6 µM [falling, partial curve, poor fit] | max response [3]: 36.9% | max response [6]: -24.9%

C=CC(=O)OCCOCC(CC)(COCCOC(=O)C=C)COCCOC(=O)C=C
AC50 [7]: 35.5 µM [rising, single point] | max response [4]: -93.4% | AC50 [2]: 50.1 µM [falling, single point] | AC50 [5]: 31.6 µM [falling, partial curve] | max response [3]: 21.1% | max response [6]: 36.9%

CN(C)c1ccc(C(=C2C=CC(=[N+](C)C)C=C2)c2ccccc2)cc1
AC50 [7]: 31.6 µM [falling, partial curve, poor fit] | AC50 [2]: 7.94 µM [falling, full curve, poor fit] | AC50 [5]: 3.16 µM [falling, full curve, poor fit] | max response [3]: -57% | max response [6]: -34.5% | AC50 [8]: 2.51 µM [falling, full curve]

CC1(COc2ccc(CC3SC(=O)NC3=O)cc2)CCCCC1 (stereo not drawn)
AC50 [7]: 50.1 µM [falling, single point] | max response [4]: 207% | AC50 [2]: 14.1 µM [rising, partial curve, poor fit] | AC50 [5]: 8.91 µM [rising, full curve, poor fit] | max response [3]: 50.8%

CC(C)(c1cc(Br)c(O)c(Br)c1)c1cc(Br)c(O)c(Br)c1
AC50 [7]: 50.1 µM [falling, partial curve, poor fit] | AC50 [5]: 22.4 µM [falling, full curve] | max response [6]: 6.52% and 1.9% and -4.71%

Cc1cc(Cc2cc(C)cc(C(C)(C)C)c2O)c(O)c(C(C)(C)C)c1
AC50 [7]: 50.1 µM [falling, partial curve, poor fit] | max response [4]: 24% | AC50 [2]: 44.7 µM [falling, partial curve] | AC50 [5]: 50.1 µM [falling, single point] | max response [3]: -68.1% | max response [6]: -43.4%

COc1ccccc1O
max response [4]: -11.7%

COC(=O)c1ccc(C=O)cc1
AC50 [7]: 7.94 µM [falling, full curve, poor fit]

CCCCCCCC[N+](CCCCCCCC)(CCCCCCCC)CCCCCCCC
AC50 [7]: 7.94 µM [falling, full curve] | max response [4]: -33.3% | max response [3]: 48.9% | max response [6]: -38.8%

O=C=Nc1ccc(Cl)c(Cl)c1
AC50 [7]: 17.8 µM [falling, full curve, poor fit] | max response [4]: -33.3% | max response [3]: 18%

O=C1c2c(O)ccc([N+](=O)[O-])c2C(=O)c2c([N+](=O)[O-])ccc(O)c21
AC50 [7]: 35.5 µM [falling, partial curve] | max response [4]: -97.5% | AC50 [5]: 25.1 µM [falling, full curve, poor fit] | max response [3]: 15.2% | max response [6]: 19.9%

c1cc2ccc3ccc4ccc5cccc6c(c1)c2c3c4c56
AC50 [7]: 25.1 µM [rising, full curve, poor fit] | max response [4]: 652% | AC50 [5]: 11.2 µM [rising, full curve] | max response [3]: 22.1% | max response [6]: 10.9%

CC[C@H]1O[C@]2(CC[C@@H]1C)C[C@@H]1C[C@@H](C/C=C(\C)C[C@@H](C)/C=C/C=C3CO[C@@H]4[C@H](O)C(C)=C[C@@H](C(=O)O1)[C@]34O)O2
AC50 [7]: 50.1 µM [falling, single point] | max response [4]: -64.9% | AC50 [2]: 35.5 µM [falling, partial curve] | max response [3]: -46.9% | max response [6]: -46.2%

COc1ccc(N)c(OC)c1
max response [4]: -30.5%

Cc1cn([C@H]2C=C[C@@H](CO)O2)c(=O)[nH]c1=O
max response [4]: 14.6%

Nc1ccc(O)cc1
AC50 [7]: 31.6 µM [falling, single point]

CCOC(=O)COc1cc(-n2ncc(C(F)(F)F)c(C)c2=O)c(F)cc1Cl
AC50 [1, 9]: 0.0794 µM [rising, full curve, poor fit] | max response [6]: 8.52%

O=C(Nc1ccccc1)c1cc(Cl)ccc1O
AC50 [7]: 5.01 µM [falling, full curve] | max response [3]: -4.13% | max response [6]: -16.5%

CC(C)CCCCCCc1ccc(OCCOCCO)cc1
AC50 [1, 9]: 50.1 µM [falling, single point] | AC50 [5]: 50.1 µM [falling, single point] | max response [6]: -51.5%

CCN(CC)c1ccc(N)cc1
AC50 [7]: 39.8 µM [falling, partial curve] | max response [4]: 47.4% | max response [3]: 21.5%

Nc1ccc2c(c1)C(=O)c1ccccc1C2=O
AC50 [7]: 44.7 µM [falling, partial curve, poor fit] | max response [4]: 45.3% | AC50 [2]: 50.1 µM [rising, single point] and 89.1 nM [falling, full curve, poor fit]

Nc1ccc2cc3ccccc3cc2c1
AC50 [7]: 44.7 µM [rising, partial curve, poor fit] | max response [4]: 523% | AC50 [2]: 44.7 µM [rising, single point] | max response [3]: 68.5% | max response [6]: 69.1%
